{"source": "paper doi:10.1101/2020.02.18.954511", "binders": {"B1": {"name": "shell protein PduB’M38L (protein, UniProt P37449 1-270)", "chain": "MSSNELVEQIMAQVIARVATPEQQAIPGQPQPIRETALAEKSCSLTEFVGTAIGDTLGLVIANVDTALLDAMKLEKRYRSIGILGARTGAGPHIMAADEAVKATNTEVVSIELPRDTKGGAGHGSLIILGGNDVSDVKRGIEVALKELDRTFGDVYGNEAGHIELQYTARASYALEKAFGAPIGRACGIIVGAPASVGVLMADTALKSANVEVVAYSSPAHGTSFSNEAILVISGDSGAVRQAVTSAREIGKTVLATLGSEPKNDRPSYI"}}, "key": {"[1]": {"target": "shell protein PduB’M38L (Salmonella enterica) (UniProt P37449)", "assay": "dynamic light scattering"}, "[2]": {"target": "T1, diol dehydratase PduCDE (Salmonella enterica) (UniProt P37450)", "T1 sequence 1": "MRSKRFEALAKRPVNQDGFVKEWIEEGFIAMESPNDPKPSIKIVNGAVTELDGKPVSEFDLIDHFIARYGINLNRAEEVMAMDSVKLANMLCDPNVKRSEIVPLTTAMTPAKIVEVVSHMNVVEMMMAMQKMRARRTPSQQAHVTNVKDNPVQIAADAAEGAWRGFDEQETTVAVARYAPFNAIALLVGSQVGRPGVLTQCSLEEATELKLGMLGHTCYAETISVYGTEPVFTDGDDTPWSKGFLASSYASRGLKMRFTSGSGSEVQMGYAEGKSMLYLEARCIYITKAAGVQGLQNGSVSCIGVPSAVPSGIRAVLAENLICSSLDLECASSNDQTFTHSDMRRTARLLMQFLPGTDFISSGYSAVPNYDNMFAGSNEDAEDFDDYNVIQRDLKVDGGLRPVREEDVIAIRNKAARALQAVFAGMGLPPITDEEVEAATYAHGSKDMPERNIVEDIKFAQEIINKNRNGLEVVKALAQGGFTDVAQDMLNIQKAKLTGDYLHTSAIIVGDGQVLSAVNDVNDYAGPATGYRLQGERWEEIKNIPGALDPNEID", "T1 sequence 2": "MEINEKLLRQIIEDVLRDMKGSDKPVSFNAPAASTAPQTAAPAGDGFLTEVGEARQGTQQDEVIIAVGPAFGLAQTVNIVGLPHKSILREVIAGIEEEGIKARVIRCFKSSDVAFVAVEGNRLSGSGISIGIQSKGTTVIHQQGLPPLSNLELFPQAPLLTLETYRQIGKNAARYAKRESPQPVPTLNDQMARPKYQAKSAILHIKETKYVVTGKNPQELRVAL", "T1 sequence 3": "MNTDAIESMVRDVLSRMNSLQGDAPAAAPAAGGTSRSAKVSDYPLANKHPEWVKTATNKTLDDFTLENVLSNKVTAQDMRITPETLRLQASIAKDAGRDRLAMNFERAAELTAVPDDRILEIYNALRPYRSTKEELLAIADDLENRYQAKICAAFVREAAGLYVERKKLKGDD", "assay": "time-resolved fluorescence anisotropy"}}, "note": "These are yes or no findings as the source states them, for the method shown. Some binding calls cover weakened binding; strength is not graded here.", "data": [{"binder": "B1", "values": [{"measurement": "binding", "setting": "[1]", "value": "binds weakly"}, {"measurement": "binding", "setting": "[2]", "value": "binds weakly"}]}]}
